Reference: the supplement of paper PMC12067093, “Discovery and optimisation of a covalent ligand for TRIM25 and its application to targeted protein ubiquitination” (Chemical Science, 2025)
Some of the results follow.

Sequences of proteins named here, by UniProt entry; tags and fusion partners are left off. A change or cut given only in a name is not applied to a line headed by its entry.
UniProt Q9NXH9: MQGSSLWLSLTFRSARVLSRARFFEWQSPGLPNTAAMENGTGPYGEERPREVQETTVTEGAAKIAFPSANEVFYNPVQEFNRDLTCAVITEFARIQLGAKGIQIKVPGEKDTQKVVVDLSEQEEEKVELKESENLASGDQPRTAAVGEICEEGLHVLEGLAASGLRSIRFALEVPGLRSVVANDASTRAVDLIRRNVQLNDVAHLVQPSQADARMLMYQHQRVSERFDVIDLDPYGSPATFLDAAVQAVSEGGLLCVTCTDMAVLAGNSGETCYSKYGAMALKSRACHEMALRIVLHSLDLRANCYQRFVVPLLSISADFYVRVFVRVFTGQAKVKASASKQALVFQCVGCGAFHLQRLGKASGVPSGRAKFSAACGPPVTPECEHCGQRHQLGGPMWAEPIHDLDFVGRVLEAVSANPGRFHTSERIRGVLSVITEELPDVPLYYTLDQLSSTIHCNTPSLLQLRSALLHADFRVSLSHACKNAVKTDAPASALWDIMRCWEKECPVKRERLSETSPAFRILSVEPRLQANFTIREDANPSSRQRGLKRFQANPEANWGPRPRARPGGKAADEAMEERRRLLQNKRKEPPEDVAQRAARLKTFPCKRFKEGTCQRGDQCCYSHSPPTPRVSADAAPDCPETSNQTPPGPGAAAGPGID
UniProt P29144: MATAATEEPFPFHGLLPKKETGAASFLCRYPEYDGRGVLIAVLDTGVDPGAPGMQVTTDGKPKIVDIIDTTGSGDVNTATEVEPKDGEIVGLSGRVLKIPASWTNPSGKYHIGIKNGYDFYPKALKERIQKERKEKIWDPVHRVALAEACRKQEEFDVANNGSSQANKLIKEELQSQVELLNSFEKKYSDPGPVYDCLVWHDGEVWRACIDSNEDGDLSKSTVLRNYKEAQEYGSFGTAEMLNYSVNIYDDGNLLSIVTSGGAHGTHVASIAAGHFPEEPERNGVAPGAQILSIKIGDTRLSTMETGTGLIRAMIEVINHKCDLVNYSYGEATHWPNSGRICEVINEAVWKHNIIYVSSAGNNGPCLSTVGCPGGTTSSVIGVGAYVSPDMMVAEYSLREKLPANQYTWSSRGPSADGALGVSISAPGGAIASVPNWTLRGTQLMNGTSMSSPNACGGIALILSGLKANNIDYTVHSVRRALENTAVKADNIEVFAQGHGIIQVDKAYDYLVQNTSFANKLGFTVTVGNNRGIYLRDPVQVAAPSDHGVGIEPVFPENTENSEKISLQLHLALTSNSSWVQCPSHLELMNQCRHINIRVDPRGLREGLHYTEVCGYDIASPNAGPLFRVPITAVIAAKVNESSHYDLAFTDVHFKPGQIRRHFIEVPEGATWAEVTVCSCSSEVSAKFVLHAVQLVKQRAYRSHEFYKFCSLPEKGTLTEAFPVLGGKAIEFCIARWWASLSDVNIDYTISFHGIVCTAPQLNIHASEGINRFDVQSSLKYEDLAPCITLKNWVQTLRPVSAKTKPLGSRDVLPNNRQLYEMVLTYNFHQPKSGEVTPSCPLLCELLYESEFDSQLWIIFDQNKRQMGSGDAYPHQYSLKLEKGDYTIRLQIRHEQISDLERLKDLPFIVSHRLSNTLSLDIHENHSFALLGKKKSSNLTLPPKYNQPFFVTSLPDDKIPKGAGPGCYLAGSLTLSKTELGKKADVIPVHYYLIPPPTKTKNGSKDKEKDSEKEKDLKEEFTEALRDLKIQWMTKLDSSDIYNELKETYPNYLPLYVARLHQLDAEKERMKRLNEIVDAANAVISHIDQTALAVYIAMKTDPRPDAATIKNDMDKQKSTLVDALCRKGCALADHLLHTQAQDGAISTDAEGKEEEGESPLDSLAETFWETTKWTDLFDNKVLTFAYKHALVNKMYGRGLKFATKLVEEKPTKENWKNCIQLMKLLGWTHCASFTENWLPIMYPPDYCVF
UniProt Q15654: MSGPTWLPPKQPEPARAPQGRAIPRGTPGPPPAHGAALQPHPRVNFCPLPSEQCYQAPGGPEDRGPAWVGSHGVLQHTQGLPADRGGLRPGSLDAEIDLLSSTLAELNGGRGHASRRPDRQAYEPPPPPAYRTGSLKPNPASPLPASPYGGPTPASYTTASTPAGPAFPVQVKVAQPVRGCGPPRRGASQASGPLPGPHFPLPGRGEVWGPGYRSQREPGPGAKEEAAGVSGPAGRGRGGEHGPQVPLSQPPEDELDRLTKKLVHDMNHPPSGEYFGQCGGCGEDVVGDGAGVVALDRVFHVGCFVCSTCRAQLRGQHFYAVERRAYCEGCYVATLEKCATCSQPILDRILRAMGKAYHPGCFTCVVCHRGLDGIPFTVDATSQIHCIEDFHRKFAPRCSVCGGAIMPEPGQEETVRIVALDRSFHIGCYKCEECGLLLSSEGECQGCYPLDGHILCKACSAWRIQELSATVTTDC
UniProt Q9Y4K3: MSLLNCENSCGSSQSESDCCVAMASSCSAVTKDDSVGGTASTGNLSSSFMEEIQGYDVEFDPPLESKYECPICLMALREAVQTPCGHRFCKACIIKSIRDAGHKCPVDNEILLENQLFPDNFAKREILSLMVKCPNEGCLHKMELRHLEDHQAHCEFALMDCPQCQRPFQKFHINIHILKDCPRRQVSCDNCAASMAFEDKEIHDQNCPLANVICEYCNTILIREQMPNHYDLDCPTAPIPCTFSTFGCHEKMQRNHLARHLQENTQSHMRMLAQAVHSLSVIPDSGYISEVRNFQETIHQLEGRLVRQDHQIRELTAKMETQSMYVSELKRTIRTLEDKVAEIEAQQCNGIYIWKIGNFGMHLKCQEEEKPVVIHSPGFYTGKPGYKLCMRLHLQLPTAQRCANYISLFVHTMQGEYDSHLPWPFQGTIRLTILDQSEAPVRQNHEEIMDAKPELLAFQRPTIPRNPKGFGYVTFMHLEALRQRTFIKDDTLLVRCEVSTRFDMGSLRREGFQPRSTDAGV
UniProt Q7L0Y3: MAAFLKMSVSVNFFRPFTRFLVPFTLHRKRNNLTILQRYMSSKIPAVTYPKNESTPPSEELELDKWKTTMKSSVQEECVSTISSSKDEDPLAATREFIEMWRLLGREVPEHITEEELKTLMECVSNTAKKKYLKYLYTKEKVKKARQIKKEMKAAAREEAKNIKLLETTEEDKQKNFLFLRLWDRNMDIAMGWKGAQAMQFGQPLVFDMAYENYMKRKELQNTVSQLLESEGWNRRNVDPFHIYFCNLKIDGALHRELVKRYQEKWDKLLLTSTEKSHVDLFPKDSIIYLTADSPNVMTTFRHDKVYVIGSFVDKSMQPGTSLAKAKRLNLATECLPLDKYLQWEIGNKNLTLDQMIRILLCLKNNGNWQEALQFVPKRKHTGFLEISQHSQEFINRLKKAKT
UniProt P13693: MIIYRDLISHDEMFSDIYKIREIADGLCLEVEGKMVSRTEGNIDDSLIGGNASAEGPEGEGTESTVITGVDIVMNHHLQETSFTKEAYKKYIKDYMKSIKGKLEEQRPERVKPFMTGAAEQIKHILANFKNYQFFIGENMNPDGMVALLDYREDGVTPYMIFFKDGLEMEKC
UniProt O15164: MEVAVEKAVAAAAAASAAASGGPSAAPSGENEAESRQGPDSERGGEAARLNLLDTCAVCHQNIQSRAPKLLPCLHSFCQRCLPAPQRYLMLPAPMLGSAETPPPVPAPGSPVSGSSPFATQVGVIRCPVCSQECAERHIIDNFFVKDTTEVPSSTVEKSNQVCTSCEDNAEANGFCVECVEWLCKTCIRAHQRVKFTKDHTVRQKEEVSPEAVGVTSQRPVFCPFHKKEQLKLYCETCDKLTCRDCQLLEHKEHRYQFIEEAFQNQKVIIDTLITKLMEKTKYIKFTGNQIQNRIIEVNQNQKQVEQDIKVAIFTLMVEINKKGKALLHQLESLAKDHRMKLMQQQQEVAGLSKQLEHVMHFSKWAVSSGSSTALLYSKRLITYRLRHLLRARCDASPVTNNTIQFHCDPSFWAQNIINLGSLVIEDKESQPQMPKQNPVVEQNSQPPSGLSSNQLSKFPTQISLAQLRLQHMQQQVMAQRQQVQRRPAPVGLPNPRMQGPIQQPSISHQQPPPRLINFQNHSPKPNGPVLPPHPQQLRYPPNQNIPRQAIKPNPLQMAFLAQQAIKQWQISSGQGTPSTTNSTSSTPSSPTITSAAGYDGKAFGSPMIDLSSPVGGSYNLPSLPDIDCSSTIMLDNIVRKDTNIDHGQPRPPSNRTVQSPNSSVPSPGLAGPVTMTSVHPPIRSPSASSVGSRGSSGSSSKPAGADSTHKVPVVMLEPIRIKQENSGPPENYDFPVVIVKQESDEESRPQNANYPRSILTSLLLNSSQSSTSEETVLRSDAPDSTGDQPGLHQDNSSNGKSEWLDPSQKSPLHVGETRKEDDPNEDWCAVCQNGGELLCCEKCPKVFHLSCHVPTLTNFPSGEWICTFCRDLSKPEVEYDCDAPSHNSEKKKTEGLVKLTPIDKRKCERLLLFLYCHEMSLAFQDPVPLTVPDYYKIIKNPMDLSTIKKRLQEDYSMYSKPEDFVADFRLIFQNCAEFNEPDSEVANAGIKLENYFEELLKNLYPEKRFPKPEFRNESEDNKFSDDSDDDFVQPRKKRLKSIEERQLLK
UniProt Q13595: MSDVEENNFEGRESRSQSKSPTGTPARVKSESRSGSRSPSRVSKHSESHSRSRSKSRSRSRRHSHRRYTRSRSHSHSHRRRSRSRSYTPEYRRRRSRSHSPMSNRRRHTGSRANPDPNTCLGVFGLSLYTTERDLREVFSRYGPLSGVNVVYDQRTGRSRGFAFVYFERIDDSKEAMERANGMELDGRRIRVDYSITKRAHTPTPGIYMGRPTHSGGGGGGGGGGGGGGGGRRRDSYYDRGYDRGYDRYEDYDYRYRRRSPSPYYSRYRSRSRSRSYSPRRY
UniProt Q14258, whole entry, looked up: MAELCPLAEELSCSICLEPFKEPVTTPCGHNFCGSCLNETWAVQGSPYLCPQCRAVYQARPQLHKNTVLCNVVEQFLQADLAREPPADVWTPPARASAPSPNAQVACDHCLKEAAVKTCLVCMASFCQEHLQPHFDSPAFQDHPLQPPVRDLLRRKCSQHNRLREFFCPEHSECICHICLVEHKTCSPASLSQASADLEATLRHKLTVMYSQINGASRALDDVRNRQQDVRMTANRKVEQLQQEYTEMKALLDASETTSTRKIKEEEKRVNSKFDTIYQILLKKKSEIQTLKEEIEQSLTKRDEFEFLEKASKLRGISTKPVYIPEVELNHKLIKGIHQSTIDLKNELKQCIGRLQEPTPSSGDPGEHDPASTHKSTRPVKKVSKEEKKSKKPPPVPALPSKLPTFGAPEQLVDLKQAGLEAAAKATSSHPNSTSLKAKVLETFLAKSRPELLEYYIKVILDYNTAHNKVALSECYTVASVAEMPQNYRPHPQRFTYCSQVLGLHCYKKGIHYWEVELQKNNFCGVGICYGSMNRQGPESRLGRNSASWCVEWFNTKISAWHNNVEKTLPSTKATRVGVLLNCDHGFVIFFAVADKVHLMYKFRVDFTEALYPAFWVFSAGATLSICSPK
UniProt Q7Z2T5: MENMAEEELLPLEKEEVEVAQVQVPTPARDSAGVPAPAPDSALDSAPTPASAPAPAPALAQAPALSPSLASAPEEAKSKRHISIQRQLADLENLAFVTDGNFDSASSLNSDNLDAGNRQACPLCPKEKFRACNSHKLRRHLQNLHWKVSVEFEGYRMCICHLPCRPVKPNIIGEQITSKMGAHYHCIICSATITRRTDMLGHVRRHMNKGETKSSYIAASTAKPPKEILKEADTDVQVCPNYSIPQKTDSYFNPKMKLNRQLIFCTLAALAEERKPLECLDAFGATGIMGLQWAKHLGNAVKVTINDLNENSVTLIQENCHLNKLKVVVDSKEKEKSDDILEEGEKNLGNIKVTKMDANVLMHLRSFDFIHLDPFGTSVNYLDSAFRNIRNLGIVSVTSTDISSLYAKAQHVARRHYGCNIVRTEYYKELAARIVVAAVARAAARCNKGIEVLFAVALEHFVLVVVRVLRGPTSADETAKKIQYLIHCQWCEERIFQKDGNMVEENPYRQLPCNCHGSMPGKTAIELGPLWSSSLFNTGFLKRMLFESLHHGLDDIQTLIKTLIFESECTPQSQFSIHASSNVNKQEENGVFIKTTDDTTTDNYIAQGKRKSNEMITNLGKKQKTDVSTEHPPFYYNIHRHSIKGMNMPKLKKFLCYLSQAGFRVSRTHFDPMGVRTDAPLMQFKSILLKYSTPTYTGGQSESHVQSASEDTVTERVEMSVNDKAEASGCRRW
UniProt P06753, whole entry, looked up: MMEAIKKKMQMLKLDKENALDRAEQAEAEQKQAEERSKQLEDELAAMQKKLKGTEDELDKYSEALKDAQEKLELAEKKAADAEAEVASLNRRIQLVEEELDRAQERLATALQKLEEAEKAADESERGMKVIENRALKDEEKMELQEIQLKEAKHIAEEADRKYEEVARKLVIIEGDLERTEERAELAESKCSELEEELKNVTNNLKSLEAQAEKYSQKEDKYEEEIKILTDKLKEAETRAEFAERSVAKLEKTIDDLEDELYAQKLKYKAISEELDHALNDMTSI

Compound: CC1Cc2ccccc2N1C(=O)C1CCCN(C1)C(=O)CCl (mixture of isomers) [TRIM25 ligand 11 (diastereomer mixture)]
Assay: probe-labelled cysteine peptide fold change vs DMSO (competition) (log2 fold change); higher = less target engagement (more negative = stronger competition)
Details: THP-1, incubation time: 4 h
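Also: competitive chemoproteomic profiling in live THP-1 cells with an iodoacetamide desthiobiotin (IA-DTB) probe, comparing probe-labelled peptide intensities in compound-treated cells against DMSO-treated controls.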

Target | probe-labelled cysteine peptide fold change (10 µM) | probe-labelled cysteine peptide fold change (50 µM)
TRMT1_Q9NXH9_150_TAAVGEICEEGLHVLEGLAASGLR (UniProt Q9NXH9) | 0.105 | -0.0776
TPP2_P29144_614_EGLHYTEVCGYDIASPNAGPLFR (UniProt P29144) | 0.0586 | -0.155
TRAPPC10_P48553_560_HFCQEILDFASQPSDSPGHK (UniProt P48553) | 0.102 | 0.0533
TRIP6_Q15654_362+365+368_AYHPGCFTCVVCHR (UniProt Q15654) |  | 0.0784
TRIM33_Q9UPN9_276_PVFCPVHK (UniProt Q9UPN9) | -0.0342 | 0.0711
TPP2_P29144_678+680_RHFIEVPEGATWAEVTVCSCSSEVSAK (UniProt P29144) | 0.155 | 0.225
TRAF6_Q9Y4K3_73_YECPICLMALR (UniProt Q9Y4K3) | 0.245 | 0.109
TRMT10C_Q7L0Y3_78_SSVQEECVSTISSSKDEDPLAATR (UniProt Q7L0Y3) | 0.052 | -0.25
TPT1_P13693_28_IREIADGLCLEVEGK (UniProt P13693) | 0.0289 | -0.0674
TRIM24_O15164_134_CPVCSQECAER (UniProt O15164) | -0.0741 | 0.159
TRIM11_Q96F44_330_FDPGPCVLGQER (UniProt Q96F44) | -0.0286 | 0.0502
TRA2A_Q13595_120_ANPDPNTCLGVFGLSLYTTER (UniProt Q13595) | 0.142 | -0.0966
TRIM24_O15164_882_DLSKPEVEYDCDAPSHNSEK (UniProt O15164) | 0.0355 | -0.207
TRIP4_Q15650_171_LAVLLPGRHPCDCLGQK (UniProt Q15650) | -0.108 | -0.0289
TRIT1_Q9H3H1_397_SYHLCDLCDR (UniProt Q9H3H1) | 0.187 | 0.0684
TRIP6_Q15654_387_GLDGIPFTVDATSQIHCIEDFHR (UniProt Q15654) | -0.016 | -0.0556
TRIM28_Q13263_221+229_HEPLVLFCESCDTLTCR (UniProt Q13263) | 0.144 | 0.258
TRAPPC9_Q96Q05_415_VAAMQCVAPSIAEPGWR (UniProt Q96Q05) | -0.00239 | 0.0546
TRAF3IP3_Q9Y228_35_CRPNVTTCR (UniProt Q9Y228) | 0.0245 | 0.0481

3 entries from above in a different format:
Target	probe-labelled cysteine peptide fold change (10 µM)	probe-labelled cysteine peptide fold change (50 µM)
TPP2_P29144_678+680_RHFIEVPEGATWAEVTVCSCSSEVSAK (UniProt P29144)	0.155	0.225
TRMT10C_Q7L0Y3_78_SSVQEECVSTISSSKDEDPLAATR (UniProt Q7L0Y3)	0.052	-0.25
TRA2A_Q13595_120_ANPDPNTCLGVFGLSLYTTER (UniProt Q13595)	0.142	-0.0966

(cont.)

Target | probe-labelled cysteine peptide fold change (10 µM) | probe-labelled cysteine peptide fold change (50 µM)
TRIP6_Q15654_304+310_VFHVGCFVCSTCR (UniProt Q15654) | 0.268 | 0.0519
TRMT1_Q9NXH9_376_FSAACGPPVTPECEHCGQR (UniProt Q9NXH9) | 0.157 | 0.015
TRAF6_Q9Y4K3_249_EQMPNHYDLDCPTAPIPCTFSTFGCHEK (UniProt Q9Y4K3) | -0.0227 | -0.125
TRIM34_Q9BYJ4_239_ELISDVECR (UniProt Q9BYJ4) | 0.00409 | -0.148
TRIM25_Q14258_475_VALSECYTVASVAEMPQNYRPHPQR (UniProt Q14258) | -0.073 | -0.184
TRAPPC11_Q7Z392_553_NLINVLMNESPDPEPDCDILAVK (UniProt Q7Z392) | -0.0731 | 0.0232
TRMT1L_Q7Z2T5_656_FLCYLSQAGFR (UniProt Q7Z2T5) | -0.357 | -0.0738
TRIM25_Q14258_174+176_EFFCPEHSECICHICLVEHK (UniProt Q14258) | 0.035 | -0.0657
TPM3_P06753-2_170_CLSAAEEK (UniProt P06753) | 0.396 | -0.0527
TRAP1_Q12931_501_NIYYLCAPNR (UniProt Q12931) | 0.0518 | 0.0529
TRIOBP_Q9H2D6_1842_SCTDVTEYAVQR (UniProt Q9H2D6) | 0.129 | 0.105
TRIP13_Q15645_14_QALPCVAESPTVHVEVHQR (UniProt Q15645) | 0.0497 | 0.0192
TRMT1L_Q7Z2T5_121_QACPLCPK (UniProt Q7Z2T5) | -0.0179 | 0.0301
TRIM24_O15164_223_EEVSPEAVGVTSQRPVFCPFHK (UniProt O15164) | 0.183 | 0.162
TRAFD1_O14545_83_HEETECPLR (UniProt O14545) | 0.00151 | -0.00613
TRAF3IP3_Q9Y228_135_EQVTGTSSEVFPAQHPPPSGICR (UniProt Q9Y228) | -0.181 | -0.181
TRAF2_Q12933_182_AHHEVCPK (UniProt Q12933) | -0.0615 | 0.0309
TPM3_P06753-2_154_CREMDEQIR (UniProt P06753) | 0.485 | 0.239
TRMT1_Q9NXH9_351_QALVFQCVGCGAFHLQR (UniProt Q9NXH9) | 0.147 | 0.318
